Assay results reported in PMC12754631, “Cis‐2‐decenoic acid modulates Pseudomonas aeruginosa virulence through a noncanonical transcriptional regulator” (mLife, 2025).
For at least one entry, the source does not settle the construct or the ends of the probe.

Target: FadD1Pf (Pseudomonas fluorescens Migula ATCC17518) (UniProt A0ACD4XQ35)
Test: EMSA
Conditions: Thermo Scientific kit binding buffer (composition, pH not stated), room temperature 20 min (30 min in Fig 3 legend), 5% polyacrylamide gel, recombinant protein, protein details: His, label: 3' biotin, probe letters rebuilt from the primers and the genome

TATGACTCAAGCTGACTGGAAAGCCCGACAGACTGCTAGGACGGGTATCGTACTAGGTGCATCAAACGCTGCGGTCTATTGTTAAGTGGGACTGAAATGTGCCTTTCCGGCACAACGCCAACTCTATAGAGTGGGCTGACTGGACATCTTCAGGGGTCGTCGGGCACGGGCGCATGCGCCTCGGCAGGAAGCCGGGATTCTCGGACTGCCGTACAACGTGCCGGATATCGGGTGCCGAATCCATATTTGGCTGATTGGTTAATAGTTTAAGAAGAACGTAGCGCTATGGCCTTGGTTGACGGTTTTCTTGAGCTGGAA (double strand) [lasRPf promoter]
binding result: binds
